Measured values published in publication PMC12040169 (PLOS Biology, 2025).
The list shows a part of the results.

system: T1, CTL2-GFP (C. trachomatis L2/434/Bu, GFP-expressing); design: species or system HeLa; Intracellular C. trachomatis growth in HeLa cells, bulk GFP fluorescence relative to DMSO; settings: bulk GFP, single well; 28.5 h, 10 µM; inhibitor
T1 construct: L2/434/Bu, GFP-expressing

In order of falling “% of control remaining” value:
1. COc1ncc(-c2nccnc2NCc2cccc(OC)c2OC)c(OC)n1 [CBK037506]  184.333%
2. O=c1cnn([C@H]2C[C@@H](O)[C@@H](CO)O2)c(=O)[nH]1 [CBK201162]  166.259%
3. COc1cccc2ncn(CCCn3ccnn3)c(=O)c12 [CBK306650]  159.897%
4. COc1ccc(CNC(=O)CCn2c(=O)oc3ccccc32)cc1 [CBK270138]  158.352%
5. CCOC(=O)c1cn(CC)c2cc(N3CCSCC3)c(F)cc2c1=O [CBK307143]  158.133%
6. COc1ccc(CC(=O)NCCc2nnc3ccccn23)cc1 [CBK304613]  157.756%
7. O=C(NC(c1ccccc1)c1ccco1)C1CCN(Cc2cccc(Cl)c2)CC1 (centres unmarked) [CBK148295]  156.202%
8. O=C(Nc1ccccc1-c1nc2ccccc2[nH]1)c1ccncc1 [CBK270148]  155.026%
9. CN(C)S(=O)(=O)c1ccc2[nH]cc(CCN)c2c1 [CBK268522C]  152.339%
10. O=C(NC1(c2ccc(Cl)cc2)CC1)C1CCS(=O)(=O)C1 (centres unmarked) [CBK282765]  151.821%
11. Cc1ccc(CN2CCC(CN(C)C(=O)c3cc4sccc4[nH]3)CC2)o1 [CBK307522]  148.55%
12. Cc1cccc(C(=O)NC(CC(C)C)c2nnc3n2CCNCC3)c1O (centres unmarked) [CBK307191]  143.752%
13. CC(C)[C@H](CO)Nc1nc(-c2ccc(S(C)(=O)=O)cc2)cnc1N [CBK063718]  142.064%
14. Cc1nn(CC(=O)NC2CC2)c(=O)c2cc3ccsc3n12 [CBK284026]  138.037%
15. CC(C)(C)NC(=O)COc1ccc(CNCc2ccc(C(=O)O)cc2)cc1 [CBK287204]  137.99%
16. CC(NC(=O)CCc1ccncc1)c1ccc2c(c1)CCCO2 (centres unmarked) [CBK281624]  137.979%
17. CCN1C(=O)c2ccccc2C(=O)[C@@]2(C)CN(C(C)=O)C[C@@H]12 [CBK281686]  137.87%
18. Cc1ccc(-c2csc(=Nc3ccc(C(=O)O)cc3)n2Cc2ccccc2)cc1 [CBK296062]  136.961%
19. Cc1nc2c(c(=O)[nH]1)CN(Cc1sccc1C)CC2 [CBK283950]  135.447%
20. Cc1nn(C)cc1-c1cncn1C(CCN(C)C)c1ccccc1 (centres unmarked) [CBK281987]  135.306%
21. Cc1ccc(C)c(NC(=O)c2cnc3sccn3c2=O)c1 [CBK287451]  134.15%
22. CC(=O)Nc1cccc(-c2cc(NCc3ccccc3)n3nccc3n2)c1 [CBK037153]  133.856%
23. COc1ccc(Oc2nccc(-c3ccccc3)c2C#N)cc1 [CBK291158]  131.709%
24. COc1cccc(-c2cnc(N(C)C)nc2C2CCCN2Cc2ccc3ncccc3c2)c1 (centres unmarked) [CBK286251]  130.878%
25. Cc1cc(NC(=O)CCn2c(C(F)F)cc3cccnc32)nn1C [CBK285071]  130.481%
26. Cc1nc(S(=O)(=O)CCn2cccn2)n(CC2CCCO2)c1C (centres unmarked) [CBK305141]  129.303%
27. COCc1cc(C[C@H]2CNCC[C@H]2CC(=O)N2CCc3ccccc3C2)no1 [CBK289144]  128.071%
28. O=C(NCCc1ccccc1)C1CCN(C(=O)c2cccc(F)c2)CC1 [CBK307583]  126.76%
29. COc1cccc(CN2CCN(Cc3cc(OC)cc(OC)c3)CC2)c1 [CBK033622]  126.237%
30. O=C(NCC1COc2ccccc2O1)N1CCN(c2cc(C(F)(F)F)ccn2)CC1 (centres unmarked) [CBK156432]  125.243%
31. N#Cc1cccc(NC(=O)NC[C@H]2C[C@@H]3CC[N@]2C[C@@H]3CN2CCOCC2)c1 [CBK288763]  124.072%
32. Cc1cc(Br)ccc1NC(=O)CSc1nnc(-c2ccccc2O)n1-c1ccccc1 [CBK268086]  123.918%
33. O=c1[nH]cnc2c1nc(S)n2C1OC(CO)C(O)C1O (centres unmarked) [CBK218834]  123.284%
34. CN(C)CC1CN(C(=O)Nc2ncc(Cc3ccccc3Cl)s2)CCO1 (centres unmarked) [CBK304107]  122.361%
35. COc1ccccc1CC(=O)NC(CCSC)c1nnc2ccccn12 (centres unmarked) [CBK306492]  121.11%
36. O=C(CN1CCCCCC1)N1CCCC1c1n[nH]cc1-c1cccc(Cl)c1 (centres unmarked) [CBK283084]  119.656%
37. Cc1noc(C)c1CN1CCC(C(O)c2ccccc2)CC1 (centres unmarked) [CBK305783]  119.125%
38. O=C1NC(=O)C(CC(=O)N2CCCC3(CCN(C(=O)c4cc(F)c(F)cc4F)C3)C2)N1 (centres unmarked) [CBK131550]  118.815%
39. Cc1ccc(C(=O)Nc2cc(C)nn2C)c(N2CCOCC2)n1 [CBK106221]  118.169%
40. Cc1cc(COc2ccnc(N3CCCN(CCCO)CC3)n2)no1 [CBK083917]  117.201%
41. O=C([C@H]1CN2CCC1C[C@@H]2Cn1cc(COc2ccccc2)nn1)N1CCOCC1 (some centres unmarked) [CBK288734]  117.061%
42. Brc1ccc(-c2ccnc3nc(-c4ccncc4)nn23)cc1 [CBK288623]  114.834%
43. CCOC(=O)C1(Cc2ccc(F)cc2F)CCCN(C(=O)CC)C1 (centres unmarked) [CBK307012]  114.493%
44. Cc1cccc(C(=O)Nc2ccc3oc(-c4cccnc4)nc3c2)c1 [CBK073161]  114.438%
45. COc1cccc2sc(NC(=O)c3ccc4occc4c3)nc12 [CBK149278]  112.893%
46. CC(=O)c1cc(C(=O)Nc2ccc(Oc3ccc4c(c3)OCO4)cc2)cs1 [CBK286327]  112.733%
47. Fc1ccc2nc(NCC3CCCO3)sc2c1 (centres unmarked) [CBK287647]  112.173%
48. CCN1CCN(Cc2ccc(OC)c(OCc3ccccc3)c2)CC1 [CBK261910]  111.719%
49. CN1CCN(CCOC(=O)N2CCN(C(c3ccccc3)c3ccccc3)CC2)CC1 [CBK200419]  111.016%
50. N#Cc1cccc(CN2CC[C@H](c3nnc(-c4ccco4)o3)C2)c1 [CBK289394]  110.662%
51. CC(=O)NCCSc1nc2cc(Cl)c(Cl)cc2nc1N1CCCC1 [CBK103701]  109.632%
52. Cc1nn(C)c(C)c1CCc1nc(CN2CCN(C)CC2)no1 [CBK306510]  107.293%
53. O=C(CN1CCCCCC1)N/N=C/c1ccc(F)c(Br)c1 [CBK261596]  107.258%
54. O=C(O)/C=C\C(=O)Nc1ccc(Oc2ccccc2)cc1 [CBK261216]  107.172%
55. CCn1cc(CN(CCCn2ccnc2)Cc2cccc(F)c2)cn1 [CBK283124]  106.844%
56. O=C(O)c1ccc(N(Cc2ccccc2)S(=O)(=O)c2ccccc2)cc1 [CBK265375N]  105.167%
57. Cc1ccc(N2CC(c3nc(-c4ccncc4)no3)CC2=O)cc1Cl (centres unmarked) [CBK288582]  105.15%
58. C1CN2CCC1/C(=N\Nc1nnn[nH]1)C2 [CBK019005C]  104.959%
59. O=C(CSc1nnc(-c2cccnc2)n1-c1ccccc1)Nc1cc(C(F)(F)F)ccc1Cl [CBK267540]  104.663%
60. CCc1nc(CN(C)C2CCN(CC(=O)NCc3ccco3)C2)no1 (centres unmarked) [CBK305328]  104.457%
61. CCn1c(CN2CCOCC2)nnc1SCC(=O)Nc1cccc(Br)c1 [CBK269740]  103.924%
62. O=C(O)c1sccc1S(=O)(=O)NCc1ccc(Cn2cccn2)cc1 [CBK296707]  103.707%
63. COc1ccccc1C(CNC(=O)Nc1cc(C)on1)N(C)C (centres unmarked) [CBK305028]  103.323%
64. Cc1n[nH]c(C)c1CCC(=O)N/N=C/c1ccccn1 [CBK262887]  103.292%
65. COc1ccc(C(=O)[C@H]2CCCN(C(=O)C3CC3)C2)cc1 [CBK284329]  102.457%
66. CS(=O)(=O)N1CC2CCCC(O)(c3cccc(F)c3)C2C1 (centres unmarked) [CBK283107]  101.836%
67. CC(NC(=O)/C(=C\c1ccc(Cl)cc1)NC(=O)c1ccccc1Br)C(=O)O (centres unmarked) [CBK264582]  100%
68. COC(=O)c1c(NC(=O)C(Cc2ccccc2)N2C(=O)c3ccccc3C2=O)sc2c1CCC2 (centres unmarked) [CBK265744]  100%
69. COc1cc2c3c([nH]c2cc1F)C1(CCN(CCOc2ccccc2)C1)NCC3 (centres unmarked) [CBK115687T]  98.7977%
70. Cc1cc(S(=O)(=O)NC2CCCCC2)ccc1OCC(=O)O [CBK267832]  97.9866%
71. CCNc1nc(-c2cc(Cl)cc(Cl)c2)cn2ccnc12 [CBK066483]  97.0824%
72. O=C1NC2(CCN(C(=O)Cc3ccc(-c4ccccc4)cc3)CC2)Nc2ccccc21 [CBK286309]  96.8546%
73. S=C1NCC(COc2ccc(Cl)cc2)O1 (centres unmarked) [CBK015647]  96.7429%
74. COc1cc(Cl)cc(CNCCO)c1OC(C)C [CBK269196C]  96.378%
75. Cc1cccc(N2CCN(C(=O)CCc3ccsc3)C(C)C2)n1 (centres unmarked) [CBK304069]  94.2817%
76. Cc1ccccc1CN1CC[C@@H]2[C@H](C1)[C@@H](c1ccc(F)cc1)CN2C(=O)c1cccs1 [CBK285546]  92.2251%
77. CC(Nc1nc(N2CCN(CCO)CC2)nc2ccccc12)c1ccccc1 (centres unmarked) [CBK269427]  92.1745%
78. CN(Cc1cccnc1)CC1CCCN(C(=O)Nc2ccc(Cl)cc2)C1 (centres unmarked) [CBK305428]  81.9204%
79. FC(F)(F)c1ccc(CN2CCC(Oc3nccnc3OC3CCCCC3)CC2)cc1 [CBK082859T]  74.0975%
80. CC1(C(=O)NS(=O)(=O)c2cccc(-c3nnco3)c2)CC1 [CBK304683]  65.4743%
